{"source": "PubChem BioAssay AID504791 – Drosophila RNAi Screening Center | 2011", "aim": "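Genes whose knock-down strengthens or weakens small-RNA reporter silencing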 (primary screen)", "cells": "Drosophila S2-derived reporter cells", "knock-down reagent": "long dsRNA against Drosophila genes, about 150-250 ng dsRNA per well (siRNA assay); about 80-120 ng (miRNA assay)", "time to read-out": "about 5 days (siRNA assay); about 4 days (miRNA assay)", "treatment": "copper sulfate induction of reporters: 25 µM (siRNA assay); 200 mM stated (miRNA assay), 1-2 days before reading", "measurement": "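Per-well ratio of Renilla over firefly light, expressed relative to that plate's average ratio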", "units": "stable assay Renilla, run 1 in luminescence; stable assay firefly, run 1 in luminescence", "active means": "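a well was a first-pass pick when its plate-scaled ratio rose above 1.5 (siRNA assay) or 1.6 (miRNA assay), or dropped below 0.6; a gene counted only if two separate dsRNAs agreed on retest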", "note": "The screen tested about 23,000 reagents; this is an unselected part of those with a known target gene and a result. Of all reagents, 199 (0.86%) were called active. 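Plate-scaled ratios behind the calls are not deposited; printed light signals are raw; many rows marked increased or decreased are still called inactive.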 Unmarked entries are inactive. The record does not give: the direction of the score."}
{"predicted target":"CG32483","amplicon":"DRSC07902","stable assay Renilla, run 1":4323,"stable assay firefly, run 1":3.07e5}
{"predicted target":"CG43066","amplicon":"DRSC06927","stable assay Renilla, run 1":4810,"stable assay firefly, run 1":3.72e5}
{"predicted target":"CG15344 (retired record)","amplicon":"DRSC18029","stable assay Renilla, run 1":5627,"stable assay firefly, run 1":2.63e5}
{"predicted target":"CG5273","amplicon":"DRSC18612","stable assay Renilla, run 1":5858,"stable assay firefly, run 1":2.98e5}
{"predicted target":"phr6-4","amplicon":"DRSC03589","stable assay Renilla, run 1":8406,"stable assay firefly, run 1":6.32e5}
{"predicted target":"Ir68b","amplicon":"DRSC10251","stable assay Renilla, run 1":5564,"stable assay firefly, run 1":3.68e5}
{"predicted target":"CG14931","amplicon":"DRSC02413","stable assay Renilla, run 1":6839,"stable assay firefly, run 1":4.26e5}
{"predicted target":"CG11664","amplicon":"DRSC18650","stable assay Renilla, run 1":5811,"stable assay firefly, run 1":3.48e5}
{"predicted target":"CG34266","amplicon":"DRSC08323","stable assay Renilla, run 1":5890,"stable assay firefly, run 1":4.25e5}
{"predicted target":"Acp26Aa","amplicon":"DRSC01855","stable assay Renilla, run 1":7486,"stable assay firefly, run 1":3.53e5}

Continued, starting with the last 2 of the part before.
{"predicted target":"CG34266","amplicon":"DRSC08323","stable assay Renilla, run 1":5890,"stable assay firefly, run 1":4.25e5}
{"predicted target":"Acp26Aa","amplicon":"DRSC01855","stable assay Renilla, run 1":7486,"stable assay firefly, run 1":3.53e5}
{"predicted target":"CG10669","amplicon":"DRSC14261","stable assay Renilla, run 1":7415,"stable assay firefly, run 1":3.98e5}
{"predicted target":"CG42534","amplicon":"DRSC14722","stable assay Renilla, run 1":5994,"stable assay firefly, run 1":3.04e5}
{"predicted target":"CG42534","amplicon":"DRSC14759","stable assay Renilla, run 1":5116,"stable assay firefly, run 1":2.37e5}
{"predicted target":"CG42534","amplicon":"DRSC16072","stable assay Renilla, run 1":6315,"stable assay firefly, run 1":3.23e5}
{"predicted target":"CG42534","amplicon":"DRSC23131","stable assay Renilla, run 1":4695,"stable assay firefly, run 1":3.47e5}
{"predicted target":"CG42534","amplicon":"DRSC23246","stable assay Renilla, run 1":5231,"stable assay firefly, run 1":2.99e5}
